Measured values reported in paper PMC4582147.
For at least one entry, the source does not settle the construct or the ends of the probe. At least one verdict rests on a figure or table, not on a statement of the authors. Protein sequences can lack the tags named with them.

Target: T1, GST-dTAF2 (1125-1221) (Drosophila melanogaster) (UniProt Q24325)
T1 sequence (looked up): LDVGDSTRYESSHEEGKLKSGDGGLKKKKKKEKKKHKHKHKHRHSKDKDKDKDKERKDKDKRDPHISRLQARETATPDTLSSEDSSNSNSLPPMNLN
Assay: small-molecule microarray rescue
Conditions: nuclease-treated protein, dsDNA (1 ug/ml) restores binding to printed tin-containing compound 1, indirect read-out; recombinant protein; residues 1125-1221; protein details: GST

“GCTTGCATGCGTACTTATATAAGGGGGTGGGGGCGCGTT (double strand) [dsDNA rescue oligonucleotide]”: binds.
